Results are given in words; binding and its absence hold for the method and conditions named. Some binding calls cover weakened binding; strength is not graded here. Blank lines part the entries; values can stand above or below the binder they belong to.
Key:
C3(H2O) (human) [1] = target: C3(H2O) (human) (UniProt P01024); assay: inferred from lack of A1488 mAb binding to Sepharose 4B when the mAb is present during opsonization in 50% NHS
C3(H2O) (human) [2] = target: C3(H2O) (human) (UniProt P01024); assay: pre-incubation of the mAb with KBr-treated NHS or purified C3, then AP activation assay on Sepharose 4B (FIGS. 4B, 4C)

Amino acid sequences for entries named in this document (tags omitted). A change or cut given only in a name is not applied to a line headed by its entry. Residues count along the entry.
UniProt P01024, residues 23-1663: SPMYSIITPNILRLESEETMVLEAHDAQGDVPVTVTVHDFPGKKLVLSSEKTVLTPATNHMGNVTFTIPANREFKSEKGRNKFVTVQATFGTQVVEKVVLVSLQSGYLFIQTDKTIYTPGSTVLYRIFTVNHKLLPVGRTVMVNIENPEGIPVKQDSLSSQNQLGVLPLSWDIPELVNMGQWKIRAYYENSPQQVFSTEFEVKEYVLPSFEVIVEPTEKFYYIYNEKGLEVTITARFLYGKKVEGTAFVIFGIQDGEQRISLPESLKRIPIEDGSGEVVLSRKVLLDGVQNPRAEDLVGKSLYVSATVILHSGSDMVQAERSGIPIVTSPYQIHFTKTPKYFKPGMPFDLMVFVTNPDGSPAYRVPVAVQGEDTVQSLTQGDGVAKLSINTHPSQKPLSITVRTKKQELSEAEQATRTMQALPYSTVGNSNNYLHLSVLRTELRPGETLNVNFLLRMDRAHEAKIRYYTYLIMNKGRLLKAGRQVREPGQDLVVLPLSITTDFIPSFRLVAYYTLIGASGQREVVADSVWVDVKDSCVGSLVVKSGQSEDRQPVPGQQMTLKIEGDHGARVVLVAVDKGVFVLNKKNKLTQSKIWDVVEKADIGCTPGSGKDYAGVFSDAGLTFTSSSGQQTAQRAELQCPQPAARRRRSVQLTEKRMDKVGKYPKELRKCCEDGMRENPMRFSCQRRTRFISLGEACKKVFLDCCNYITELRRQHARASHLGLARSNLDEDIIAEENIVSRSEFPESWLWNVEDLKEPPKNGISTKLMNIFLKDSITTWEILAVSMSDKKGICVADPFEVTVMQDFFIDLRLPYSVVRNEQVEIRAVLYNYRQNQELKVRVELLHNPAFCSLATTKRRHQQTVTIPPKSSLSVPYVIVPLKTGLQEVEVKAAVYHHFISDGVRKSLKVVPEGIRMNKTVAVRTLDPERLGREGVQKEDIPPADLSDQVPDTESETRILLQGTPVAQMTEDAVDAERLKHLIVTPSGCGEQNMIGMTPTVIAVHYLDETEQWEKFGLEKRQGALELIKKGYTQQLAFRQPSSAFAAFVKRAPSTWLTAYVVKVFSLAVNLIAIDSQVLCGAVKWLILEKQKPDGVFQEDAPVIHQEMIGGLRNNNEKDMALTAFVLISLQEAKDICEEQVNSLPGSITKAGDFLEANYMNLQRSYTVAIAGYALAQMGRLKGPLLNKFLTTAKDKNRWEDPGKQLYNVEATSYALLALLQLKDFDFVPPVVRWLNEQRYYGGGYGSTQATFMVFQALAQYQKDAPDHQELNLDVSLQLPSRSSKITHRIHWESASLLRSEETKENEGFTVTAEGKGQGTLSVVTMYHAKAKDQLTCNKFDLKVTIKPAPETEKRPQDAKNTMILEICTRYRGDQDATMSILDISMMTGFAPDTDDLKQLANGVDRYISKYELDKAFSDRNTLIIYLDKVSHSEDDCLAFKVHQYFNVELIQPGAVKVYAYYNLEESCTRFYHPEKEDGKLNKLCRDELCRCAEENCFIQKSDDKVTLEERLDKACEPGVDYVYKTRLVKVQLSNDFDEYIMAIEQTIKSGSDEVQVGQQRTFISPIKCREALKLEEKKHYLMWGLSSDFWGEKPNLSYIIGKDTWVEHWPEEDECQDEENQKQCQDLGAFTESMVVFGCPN

- binding (C3(H2O) (human) [1]): binds
- binding (C3(H2O) (human) [2]): binds
B1: mAb 3E7 (antibody, mouse IgG1, V domains shown)
VH: EVQLQESGPSLVKPSQTLSLTCSVTGDSITSDYWNWIRKFPGNKLESMGYITYSGTTYYNPSLKSRISITRDTSKNQYYLQLNSVTSEDTATYYCARGVDYEPSYYFDYWGQGTTLTVSS
VL: DIQMTQTTSSLSASLGDRVTISCSASQGISNYLNWYQQKPDGTVKLLIYYTSSLHSGVPSRFSGSGSGTDYSLTISNLEPEDIATYYCQQYSNLPWTFGGGTKLEIK
notes: also called mouse IgG1 mAb 3E7; A1488 mAb 3E7

- binding (C3(H2O) (human) [1]): binds
- binding (C3(H2O) (human) [2]): binds
B2: mAb H17 (antibody, V domains shown)
VH: EVQLQESGPSLVKPSQTLSLTCTVSGDSITSDYWNWIRQAPGKGLESMGYITYSGTTYYNPSLKSRVTISRDTSKNQYYMELSSLRSEDTATYYCARGVDYEPSYYFDYWGQGTLVTVSS
VL: DIQMTQSPSSLSASVGDRVTITCSASQGISNYLNWYQQKPGKAPKLLIYYTSSLHSGVPSRFSGSGSGTDYSLTISSLQPEDIATYYCQQYSNLPWTFGQGTKVEIK
notes: It is a chimeric, de-immunized form of 3E7 with human gamma1 and kappa constant regions, expressed in NS0 cells; also called H117; deimmunized chimeric 3E7

From patent publication US20090004183A1 (published 2009)
